This passage reports binding results from PMC7501814.

No constants are given. Whether binding was seen depends on the method and setting. For some of these results: Binding seen in cells or lysates may run through a third protein. Some entries that bind do so weakly or less than the wild type. Where a sequence is shown, tags or fusion partners need not be part of it.

Experiment [1] deals with T1, PIRIN2 (PRN2), full-length, yeast two-hybrid bait (pB27-PRN2) (Arabidopsis thaliana) (UniProt Q9ZW82).
T1 sequence: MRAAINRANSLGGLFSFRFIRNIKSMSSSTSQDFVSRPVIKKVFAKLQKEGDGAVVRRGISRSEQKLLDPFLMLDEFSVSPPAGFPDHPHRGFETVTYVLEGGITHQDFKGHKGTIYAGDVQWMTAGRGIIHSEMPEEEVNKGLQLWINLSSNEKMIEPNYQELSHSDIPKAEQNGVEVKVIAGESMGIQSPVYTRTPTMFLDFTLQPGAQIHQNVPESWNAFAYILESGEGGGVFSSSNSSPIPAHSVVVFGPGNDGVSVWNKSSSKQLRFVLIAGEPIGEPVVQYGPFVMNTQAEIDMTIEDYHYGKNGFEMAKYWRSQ
Description: two-hybrid; large-scale yeast two-hybrid screen by Hybrigenics S.A. with full-length PRN2 as bait.

Experiment [2] addresses T1, PIRIN2 (PRN2), full-length, yeast two-hybrid bait (pB27-PRN2) (Arabidopsis thaliana). As to the kind of experiment: two-hybrid; targeted yeast two-hybrid: PRN2 bait vector (pB27) and HUB2 prey vector (pP6); growth on -Leu/-Trp/-His medium and beta-galactosidase reporter activity.
Experiment [3] concerns the target T2, myc-tagged PRN2 (Arabidopsis thaliana) (UniProt Q9ZW82).
T2 sequence: T1 sequence
Description: co-IP; transient co-expression overnight in Arabidopsis root cell protoplasts; myc-tagged protein immunoprecipitated from total protein extracts with 9E10C anti-myc antibody and protein G-Sepharose, 2 h at 4 °C; washes in 1x PBS pH 7.4, 5% glycerol, 0.1% Igepal CA-630; HA-tagged protein detected by anti-HA western blot. (In general: In western blotting, separated proteins are transferred to a membrane and probed.)

The target of experiment [4] is T3, myc-tagged HUB2 (Arabidopsis thaliana) (UniProt Q9C895).
T3 sequence: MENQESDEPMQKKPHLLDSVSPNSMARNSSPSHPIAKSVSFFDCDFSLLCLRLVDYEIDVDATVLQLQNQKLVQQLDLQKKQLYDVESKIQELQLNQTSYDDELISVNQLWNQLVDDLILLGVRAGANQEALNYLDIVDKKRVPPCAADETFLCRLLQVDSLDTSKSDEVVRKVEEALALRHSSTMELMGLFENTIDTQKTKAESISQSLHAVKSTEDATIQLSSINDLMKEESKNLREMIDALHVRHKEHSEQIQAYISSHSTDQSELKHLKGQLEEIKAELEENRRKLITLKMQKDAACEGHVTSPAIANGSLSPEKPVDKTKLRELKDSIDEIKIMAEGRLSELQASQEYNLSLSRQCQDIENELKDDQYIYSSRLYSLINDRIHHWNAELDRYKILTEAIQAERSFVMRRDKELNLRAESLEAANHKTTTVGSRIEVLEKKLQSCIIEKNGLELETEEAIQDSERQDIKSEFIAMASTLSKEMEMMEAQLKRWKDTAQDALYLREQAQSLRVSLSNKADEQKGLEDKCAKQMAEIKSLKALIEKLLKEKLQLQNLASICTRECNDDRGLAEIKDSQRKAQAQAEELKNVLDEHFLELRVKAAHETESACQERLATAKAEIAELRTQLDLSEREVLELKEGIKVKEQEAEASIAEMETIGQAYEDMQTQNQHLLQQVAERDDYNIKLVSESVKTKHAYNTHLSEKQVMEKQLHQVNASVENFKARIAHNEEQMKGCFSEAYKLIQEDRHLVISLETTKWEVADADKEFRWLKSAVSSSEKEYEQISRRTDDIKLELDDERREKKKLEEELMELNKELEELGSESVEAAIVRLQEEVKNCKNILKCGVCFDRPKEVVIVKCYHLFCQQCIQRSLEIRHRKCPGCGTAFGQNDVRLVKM
The description is as above.

B1: HISTONE MONOUBIQUITINATION2 (HUB2), yeast two-hybrid prey (pP6-HUB2) (protein, UniProt Q9C895 1-900)
chain: T3 sequence
Regarding B1, the binding result in experiment [1] and in experiment [2] was “binds” each time.

B2: HA-tagged HUB2 (protein, UniProt Q9C895 1-900)
chain: T3 sequence
On to B2, for which the binding entry in experiment [3] is “binds”.

B3: HA-tagged PRN2 (protein, UniProt Q9ZW82 1-321)
chain: T1 sequence
With B3, the binding entry in experiment [4] was “binds”.
